Data taken from article PMC4152224.
These are yes or no findings as the source states them, for the method shown. In cells and extracts the contact can be indirect. Some entries that bind do so weakly or less than the wild type.

Amino acid sequences for entries named in this document (tags omitted).
UniProt Q03135: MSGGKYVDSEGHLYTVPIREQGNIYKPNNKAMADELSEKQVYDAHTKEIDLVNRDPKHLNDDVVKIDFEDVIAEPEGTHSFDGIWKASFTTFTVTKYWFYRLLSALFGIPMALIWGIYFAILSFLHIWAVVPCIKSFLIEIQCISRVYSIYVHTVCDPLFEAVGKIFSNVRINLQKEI

Legend:
[1] = target: T1, Vascular endothelial cadherin (human (endogenous in CRL-2922)) (UniProt P33151); assay: co-IP; total protein of normal control CRL-2922 cells (no LPS); primary antibody overnight at 4°C, protein G-agarose 24 h, washed 4 times with radioimmunoprecipitation assay buffer, SDS-PAGE and blot
T1 sequence: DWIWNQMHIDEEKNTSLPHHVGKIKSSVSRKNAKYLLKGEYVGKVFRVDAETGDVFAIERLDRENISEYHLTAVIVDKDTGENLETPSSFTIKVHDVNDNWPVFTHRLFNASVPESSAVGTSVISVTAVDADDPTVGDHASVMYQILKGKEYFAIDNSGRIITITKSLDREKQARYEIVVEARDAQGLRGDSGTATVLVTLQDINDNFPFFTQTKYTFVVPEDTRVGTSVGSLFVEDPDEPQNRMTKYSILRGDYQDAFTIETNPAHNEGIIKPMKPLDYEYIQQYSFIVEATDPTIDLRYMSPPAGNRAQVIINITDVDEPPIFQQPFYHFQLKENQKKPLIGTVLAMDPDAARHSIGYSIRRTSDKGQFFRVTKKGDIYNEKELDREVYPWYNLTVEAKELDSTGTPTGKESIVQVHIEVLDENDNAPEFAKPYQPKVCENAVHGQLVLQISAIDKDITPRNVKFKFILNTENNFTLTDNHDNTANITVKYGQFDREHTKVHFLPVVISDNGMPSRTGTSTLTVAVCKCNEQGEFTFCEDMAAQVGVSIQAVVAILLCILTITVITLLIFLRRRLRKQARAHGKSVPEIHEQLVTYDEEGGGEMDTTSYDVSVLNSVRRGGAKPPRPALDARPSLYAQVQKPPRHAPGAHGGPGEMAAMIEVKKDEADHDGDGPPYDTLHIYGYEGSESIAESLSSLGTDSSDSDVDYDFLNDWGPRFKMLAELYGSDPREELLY

[2] = target: T1, Vascular endothelial cadherin (human (endogenous in CRL-2922)); assay: co-IP; total protein of CRL-2922 cells after LPS (10 µg/mL, 1 h to 4 h), with or without CPZ, clathrin siRNA, filipin, Cav-1 siRNA, SU6656, CLI-095, Cyt D or Jasp; primary antibody overnight at 4°C, protein G-agarose 24 h, washed 4 times with radioimmunoprecipitation assay buffer, SDS-PAGE and blot, densitometry ratio

For Caveolin-1 (from UniProt Q03135 1-178), the binding [1] was “binds weakly” and the binding [2] was “binds”.

For “Phospho-caveolin-1 (Tyr14) (from UniProt Q03135 1-178)”, the binding [2] was “binds”.
